Measured values from patent publication US20160279215A1, “NOVEL PEPTIDES AND COMBINATION OF PEPTIDES FOR USE IN IMMUNOTHERAPY AGAINST VARIOUS TUMORS” (immatics biotechnologies GmbH, priority 2015, published 2016).

Legend:
[1] = test system: source genes of the peptides (mRNA) in tumor and normal tissue; assay: Expression profiling of source genes by Affymetrix microarrays (target coverage); design: species or system human; settings: over-expression = more than 1.5-fold higher expression on tumor vs. normal tissue with highest expression, gene with minimal coverage decisive; for Target coverage for source genes of selected peptides, BPHI/PCA (%): BPHI/PCA (prostate cancer) samples; for Target coverage for source genes of selected peptides, CRC (%): CRC tumor samples; for Target coverage for source genes of selected peptides, GB (%): GB tumor samples; for Target coverage for source genes of selected peptides, GC (%): GC tumor samples; for Target coverage for source genes of selected peptides, HCC (%): HCC tumor samples; for Target coverage for source genes of selected peptides, NSCLC (%): NSCLC tumor samples; for Target coverage for source genes of selected peptides, PC (%): PC tumor samples; for Target coverage for source genes of selected peptides, RCC (%): RCC tumor samples
[2] = Identification and label-free relative LC-MS quantitation of HLA-presented peptides on tumor and normal tissue samples (XPRESIDENT presentation profiles); design: species or system human; settings: for Entities of particular interest: entities where the peptide was over-presented on cancer samples compared to normal tissues; for Additional entities of particular interest (presentation of selected peptides across entities): tumor entities on which the HLA-presented peptide was found, entity abbreviations defined in the title of Table 4B

## 79: peptide found in CCNB2 (gene looked up) (TVLEEIGNRV; listed as Homo sapiens) [compound 79]
[1]
  Target coverage for source genes of selected peptides, BPHI/PCA (%): I (<19% over-expression = I)
  Target coverage for source genes of selected peptides, CRC (%): IV (>70% = IV)
  Target coverage for source genes of selected peptides, GB (%): II (20-49% = II)
  Target coverage for source genes of selected peptides, GC (%): II (20-49% = II)
  Target coverage for source genes of selected peptides, HCC (%): I (<19% over-expression = I)
  Target coverage for source genes of selected peptides, NSCLC (%): II (20-49% = II)
  Target coverage for source genes of selected peptides, PC (%): I (<19% over-expression = I)
  Target coverage for source genes of selected peptides, RCC (%): I (<19% over-expression = I)

## 111: peptide found in HMMR (gene looked up) (AQLEGKLVSI; listed as Homo sapiens) [compound 111]
[1]
  Target coverage for source genes of selected peptides, BPHI/PCA (%): I (<19% over-expression = I)
  Target coverage for source genes of selected peptides, CRC (%): III (50-69% = III)
  Target coverage for source genes of selected peptides, GB (%): I (<19% over-expression = I)
  Target coverage for source genes of selected peptides, GC (%): III (50-69% = III)
  Target coverage for source genes of selected peptides, HCC (%): I (<19% over-expression = I)
  Target coverage for source genes of selected peptides, NSCLC (%): II (20-49% = II)
  Target coverage for source genes of selected peptides, PC (%): I (<19% over-expression = I)
  Target coverage for source genes of selected peptides, RCC (%): I (<19% over-expression = I)

## 268: peptide found in TOP2A (gene looked up) (SLDKDIVAL; listed as Homo sapiens) [compound 268]
[1]
  Target coverage for source genes of selected peptides, BPHI/PCA (%): I (<19% over-expression = I)
  Target coverage for source genes of selected peptides, CRC (%): IV (>70% = IV)
  Target coverage for source genes of selected peptides, GB (%): IV (>70% = IV)
  Target coverage for source genes of selected peptides, GC (%): IV (>70% = IV)
  Target coverage for source genes of selected peptides, HCC (%): II (20-49% = II)
  Target coverage for source genes of selected peptides, NSCLC (%): IV (>70% = IV)
  Target coverage for source genes of selected peptides, PC (%): III (50-69% = III)
  Target coverage for source genes of selected peptides, RCC (%): II (20-49% = II)

## 120: peptide found in RRM2 (gene looked up) (LQLSPLKGLSL; listed as Homo sapiens) [compound 120]
[1]
  Target coverage for source genes of selected peptides, BPHI/PCA (%): I (<19% over-expression = I)
  Target coverage for source genes of selected peptides, CRC (%): IV (>70% = IV)
  Target coverage for source genes of selected peptides, GB (%): II (20-49% = II)
  Target coverage for source genes of selected peptides, GC (%): III (50-69% = III)
  Target coverage for source genes of selected peptides, HCC (%): II (20-49% = II)
  Target coverage for source genes of selected peptides, NSCLC (%): III (50-69% = III)
  Target coverage for source genes of selected peptides, PC (%): II (20-49% = II)
  Target coverage for source genes of selected peptides, RCC (%): I (<19% over-expression = I)

## 249: peptide found in CDK1 (gene looked up) (YLYQILQGI; listed as Homo sapiens) [compound 249]
[1]
  Target coverage for source genes of selected peptides, BPHI/PCA (%): I (<19% over-expression = I)
  Target coverage for source genes of selected peptides, CRC (%): IV (>70% = IV)
  Target coverage for source genes of selected peptides, GB (%): IV (>70% = IV)
  Target coverage for source genes of selected peptides, GC (%): IV (>70% = IV)
  Target coverage for source genes of selected peptides, HCC (%): II (20-49% = II)
  Target coverage for source genes of selected peptides, NSCLC (%): IV (>70% = IV)
  Target coverage for source genes of selected peptides, PC (%): III (50-69% = III)
  Target coverage for source genes of selected peptides, RCC (%): II (20-49% = II)

## 2 (SVLEKEIYSI; listed as Homo sapiens) [compound 2]
[2]
  Entities of particular interest: NSCLC, HCC, BPH, OC, CRC, PC
  Additional entities of particular interest (presentation of selected peptides across entities): GC, CLL, OSCAR, SCLC, UBC, UTC, BRCA, GBC_CCC, MEL, AML, NHL

## 6 (FLNAIETAL; listed as Homo sapiens) [compound 6]
[2]
  Additional entities of particular interest (presentation of selected peptides across entities): RCC

## 59 (ALADGIKSFLL; listed as Homo sapiens) [compound 59]
[2]
  Entities of particular interest: NSCLC, PC
  Additional entities of particular interest (presentation of selected peptides across entities): BRCA, MEL

## 159 (QLGPVPVTI; listed as Homo sapiens) [compound 159]
[2]
  Additional entities of particular interest (presentation of selected peptides across entities): UBC, RCC, NHL

## 100 (ALQSFEFRV; listed as Homo sapiens) [compound 100]
[2]
  Entities of particular interest: OC, RCC

## 185 (TLYQGLPAEV; listed as Homo sapiens) [compound 185]
[2]
  Additional entities of particular interest (presentation of selected peptides across entities): GC, NSCLC, HCC, OSCAR, OC, UBC, UTC, BRCA, RCC, CRC

## 143 (MLWESIMRV; listed as Homo sapiens) [compound 143]
[2]
  Additional entities of particular interest (presentation of selected peptides across entities): NSCLC, UTC

## 172 (SLYLQMNSLRTE; listed as Homo sapiens) [compound 172]
[2]
  Additional entities of particular interest (presentation of selected peptides across entities): NSCLC

## 201 (LLFSLLCEA; listed as Homo sapiens) [compound 201]
[2]
  Additional entities of particular interest (presentation of selected peptides across entities): BPH

## 161 (NLLDENVCL; listed as Homo sapiens) [compound 161]
[2]
  Additional entities of particular interest (presentation of selected peptides across entities): CRC

## 224 (LLFDWSGTGRADA; listed as Homo sapiens) [compound 224]
[2]
  Additional entities of particular interest (presentation of selected peptides across entities): GBC_CCC

## 163 (GLEERLYTA; listed as Homo sapiens) [compound 163]
[2]
  Additional entities of particular interest (presentation of selected peptides across entities): NSCLC, CLL, AML, NHL

## 154 (AIIKEIQTV; listed as Homo sapiens) [compound 154]
[2]
  Additional entities of particular interest (presentation of selected peptides across entities): GB, NSCLC, HCC, UBC, MEL

## 160 (TLQEWLTEV; listed as Homo sapiens) [compound 160]
[2]
  Additional entities of particular interest (presentation of selected peptides across entities): NSCLC, GBC_CCC

## 102 (GLYPVTLVGV; listed as Homo sapiens) [compound 102]
[2]
  Entities of particular interest: BPH, OC
  Additional entities of particular interest (presentation of selected peptides across entities): SCLC, BRCA, AML

## 65 (SLSEKSPEV; listed as Homo sapiens) [compound 65]
[2]
  Entities of particular interest: NSCLC, OC, OSCAR, MEL
  Additional entities of particular interest (presentation of selected peptides across entities): HCC, SCLC, UBC, UTC, BRCA, NHL

## 238 (HLQEKLQSL; listed as Homo sapiens) [compound 238]
[2]
  Additional entities of particular interest (presentation of selected peptides across entities): HCC

## 167 (LVVDEGSLVSV; listed as Homo sapiens) [compound 167]
[2]
  Additional entities of particular interest (presentation of selected peptides across entities): OC, SCLC

## 279 (VLMDEGAVLTL; listed as Homo sapiens) [compound 279]
[2]
  Additional entities of particular interest (presentation of selected peptides across entities): CLL, CRC, NHL

## 216 (ALSTVTPRI; listed as Homo sapiens) [compound 216]
[2]
  Additional entities of particular interest (presentation of selected peptides across entities): HCC

## 263 (SIIEYLPTL; listed as Homo sapiens) [compound 263]
[2]
  Entities of particular interest: NSCLC, MEL, PC
  Additional entities of particular interest (presentation of selected peptides across entities): CLL, OSCAR, OC, SCLC, UBC, GBC_CCC, AML, NHL

## 221 (IMLNSVEEI; listed as Homo sapiens) [compound 221]
[2]
  Additional entities of particular interest (presentation of selected peptides across entities): BPH, NHL

## 206 (GLDAFRIFL; listed as Homo sapiens) [compound 206]
[2]
  Additional entities of particular interest (presentation of selected peptides across entities): CRC

## 286 (FLTEMVHFI; listed as Homo sapiens) [compound 286]
[2]
  Additional entities of particular interest (presentation of selected peptides across entities): NSCLC, CLL, SCLC, UBC, NHL

## 106 (VLLGSVVIFA; listed as Homo sapiens) [compound 106]
[2]
  Additional entities of particular interest (presentation of selected peptides across entities): BPH

## 150 (VLLDMVHSL; listed as Homo sapiens) [compound 150]
[2]
  Additional entities of particular interest (presentation of selected peptides across entities): HCC, UTC

## 75 (ALLDGALQL; listed as Homo sapiens) [compound 75]
[2]
  Additional entities of particular interest (presentation of selected peptides across entities): GC, CRC

## 282 (SLYALHVKA; listed as Homo sapiens) [compound 282]
[2]
  Additional entities of particular interest (presentation of selected peptides across entities): OC, SCLC

## 259 (GPGIFPPPPPQP; listed as Homo sapiens) [compound 259]
[2]
  Entities of particular interest: NSCLC, BPH, OSCAR, OC

## SEQ ID NO.: 11 (LLDPKTIFL; listed as Homo sapiens)
[2]; FIG. 1A-D, analyses of more than 170 normal tissue samples and 376 cancer samples
  cancer tissue samples where the peptide was found to be presented: 13

## 132 (ALLNNVIEV; listed as Homo sapiens) [compound 132]
[2]
  Additional entities of particular interest (presentation of selected peptides across entities): HCC, BRCA

## 241 (KQFEGTVEI; listed as Homo sapiens) [compound 241]
[2]
  Entities of particular interest: NSCLC, MCC, OC, CRC, PC, OSCAR
  Additional entities of particular interest (presentation of selected peptides across entities): CLL, NHL

## 276 (RMPTVLQCV; listed as Homo sapiens) [compound 276]
[2]
  Additional entities of particular interest (presentation of selected peptides across entities): BPH

## 67 (FLIENLLAA; listed as Homo sapiens) [compound 67]
[2]
  Entities of particular interest: GB, NSCLC
  Additional entities of particular interest (presentation of selected peptides across entities): UTC

For part of these data: Expression grades refer to the transcript from which the peptide derives; gene names, where given, were looked up from the sequence.
